Test results published in article PMC6139139.
Results are given in words; binding and its absence hold for the method and conditions named. In cells and extracts the contact can be indirect. Some binding calls cover weakened binding; strength is not graded here.

The chains behind the UniProt entries cited, without tags or fusion partners. Residues count along the entry.
UniProt Q811D0: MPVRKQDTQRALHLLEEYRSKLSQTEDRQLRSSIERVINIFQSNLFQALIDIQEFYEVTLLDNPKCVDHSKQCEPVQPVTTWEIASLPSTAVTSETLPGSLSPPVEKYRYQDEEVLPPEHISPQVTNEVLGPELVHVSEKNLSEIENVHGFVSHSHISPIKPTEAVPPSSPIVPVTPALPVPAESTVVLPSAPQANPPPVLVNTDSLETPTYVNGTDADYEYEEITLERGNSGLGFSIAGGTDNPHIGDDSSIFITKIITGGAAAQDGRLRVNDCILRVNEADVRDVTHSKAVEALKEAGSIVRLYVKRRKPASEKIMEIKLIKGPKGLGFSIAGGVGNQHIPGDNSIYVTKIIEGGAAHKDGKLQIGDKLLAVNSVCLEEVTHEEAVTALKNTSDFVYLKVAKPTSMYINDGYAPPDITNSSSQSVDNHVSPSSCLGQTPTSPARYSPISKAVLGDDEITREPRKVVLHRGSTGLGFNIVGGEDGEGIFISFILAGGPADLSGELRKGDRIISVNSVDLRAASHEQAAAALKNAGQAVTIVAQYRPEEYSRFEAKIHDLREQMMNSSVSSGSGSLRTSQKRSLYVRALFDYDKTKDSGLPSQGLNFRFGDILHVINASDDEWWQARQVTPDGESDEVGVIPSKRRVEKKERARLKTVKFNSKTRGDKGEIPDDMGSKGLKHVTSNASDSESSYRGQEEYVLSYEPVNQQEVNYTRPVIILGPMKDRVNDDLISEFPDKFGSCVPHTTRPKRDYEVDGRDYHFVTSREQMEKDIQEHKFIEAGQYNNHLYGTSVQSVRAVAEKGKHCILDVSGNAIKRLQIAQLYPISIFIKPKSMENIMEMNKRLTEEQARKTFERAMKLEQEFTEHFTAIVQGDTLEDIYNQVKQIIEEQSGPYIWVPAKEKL
UniProt Q01097, residues 27-1482: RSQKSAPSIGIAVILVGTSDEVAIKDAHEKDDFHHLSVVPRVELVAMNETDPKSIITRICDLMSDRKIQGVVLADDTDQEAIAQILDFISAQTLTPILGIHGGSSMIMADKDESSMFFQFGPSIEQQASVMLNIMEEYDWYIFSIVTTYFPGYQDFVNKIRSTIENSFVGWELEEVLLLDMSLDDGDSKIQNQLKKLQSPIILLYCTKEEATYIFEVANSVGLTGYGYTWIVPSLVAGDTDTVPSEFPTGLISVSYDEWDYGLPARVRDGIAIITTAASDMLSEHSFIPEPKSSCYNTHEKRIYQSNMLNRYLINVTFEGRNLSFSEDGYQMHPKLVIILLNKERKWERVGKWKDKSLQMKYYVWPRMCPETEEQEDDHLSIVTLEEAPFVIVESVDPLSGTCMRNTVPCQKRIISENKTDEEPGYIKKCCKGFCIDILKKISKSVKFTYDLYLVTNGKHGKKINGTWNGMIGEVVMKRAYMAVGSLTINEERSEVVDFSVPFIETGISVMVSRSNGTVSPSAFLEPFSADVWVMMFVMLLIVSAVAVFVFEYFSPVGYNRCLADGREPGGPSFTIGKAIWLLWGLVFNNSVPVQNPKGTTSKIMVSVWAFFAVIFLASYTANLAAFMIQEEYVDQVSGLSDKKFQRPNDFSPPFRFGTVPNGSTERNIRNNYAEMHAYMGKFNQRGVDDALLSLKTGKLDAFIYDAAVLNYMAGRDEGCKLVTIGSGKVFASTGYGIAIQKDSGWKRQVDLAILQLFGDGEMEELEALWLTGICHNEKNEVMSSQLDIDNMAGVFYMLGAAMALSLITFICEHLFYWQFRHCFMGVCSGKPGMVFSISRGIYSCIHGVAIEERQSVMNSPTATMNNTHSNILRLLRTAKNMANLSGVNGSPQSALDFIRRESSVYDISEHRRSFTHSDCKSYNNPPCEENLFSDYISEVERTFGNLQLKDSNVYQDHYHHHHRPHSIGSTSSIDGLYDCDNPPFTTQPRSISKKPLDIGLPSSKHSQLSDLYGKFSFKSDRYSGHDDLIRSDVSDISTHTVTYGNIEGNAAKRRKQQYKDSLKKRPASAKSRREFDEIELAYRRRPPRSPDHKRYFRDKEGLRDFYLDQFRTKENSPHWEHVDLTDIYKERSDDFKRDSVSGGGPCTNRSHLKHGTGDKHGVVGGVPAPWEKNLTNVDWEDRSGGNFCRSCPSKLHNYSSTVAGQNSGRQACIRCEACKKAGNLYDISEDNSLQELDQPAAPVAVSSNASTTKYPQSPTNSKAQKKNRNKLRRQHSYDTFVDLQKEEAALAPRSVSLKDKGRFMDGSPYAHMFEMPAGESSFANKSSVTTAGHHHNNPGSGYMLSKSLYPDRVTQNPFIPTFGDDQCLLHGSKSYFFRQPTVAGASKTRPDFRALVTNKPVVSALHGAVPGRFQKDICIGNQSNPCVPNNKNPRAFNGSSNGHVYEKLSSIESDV
UniProt Q4ACU6: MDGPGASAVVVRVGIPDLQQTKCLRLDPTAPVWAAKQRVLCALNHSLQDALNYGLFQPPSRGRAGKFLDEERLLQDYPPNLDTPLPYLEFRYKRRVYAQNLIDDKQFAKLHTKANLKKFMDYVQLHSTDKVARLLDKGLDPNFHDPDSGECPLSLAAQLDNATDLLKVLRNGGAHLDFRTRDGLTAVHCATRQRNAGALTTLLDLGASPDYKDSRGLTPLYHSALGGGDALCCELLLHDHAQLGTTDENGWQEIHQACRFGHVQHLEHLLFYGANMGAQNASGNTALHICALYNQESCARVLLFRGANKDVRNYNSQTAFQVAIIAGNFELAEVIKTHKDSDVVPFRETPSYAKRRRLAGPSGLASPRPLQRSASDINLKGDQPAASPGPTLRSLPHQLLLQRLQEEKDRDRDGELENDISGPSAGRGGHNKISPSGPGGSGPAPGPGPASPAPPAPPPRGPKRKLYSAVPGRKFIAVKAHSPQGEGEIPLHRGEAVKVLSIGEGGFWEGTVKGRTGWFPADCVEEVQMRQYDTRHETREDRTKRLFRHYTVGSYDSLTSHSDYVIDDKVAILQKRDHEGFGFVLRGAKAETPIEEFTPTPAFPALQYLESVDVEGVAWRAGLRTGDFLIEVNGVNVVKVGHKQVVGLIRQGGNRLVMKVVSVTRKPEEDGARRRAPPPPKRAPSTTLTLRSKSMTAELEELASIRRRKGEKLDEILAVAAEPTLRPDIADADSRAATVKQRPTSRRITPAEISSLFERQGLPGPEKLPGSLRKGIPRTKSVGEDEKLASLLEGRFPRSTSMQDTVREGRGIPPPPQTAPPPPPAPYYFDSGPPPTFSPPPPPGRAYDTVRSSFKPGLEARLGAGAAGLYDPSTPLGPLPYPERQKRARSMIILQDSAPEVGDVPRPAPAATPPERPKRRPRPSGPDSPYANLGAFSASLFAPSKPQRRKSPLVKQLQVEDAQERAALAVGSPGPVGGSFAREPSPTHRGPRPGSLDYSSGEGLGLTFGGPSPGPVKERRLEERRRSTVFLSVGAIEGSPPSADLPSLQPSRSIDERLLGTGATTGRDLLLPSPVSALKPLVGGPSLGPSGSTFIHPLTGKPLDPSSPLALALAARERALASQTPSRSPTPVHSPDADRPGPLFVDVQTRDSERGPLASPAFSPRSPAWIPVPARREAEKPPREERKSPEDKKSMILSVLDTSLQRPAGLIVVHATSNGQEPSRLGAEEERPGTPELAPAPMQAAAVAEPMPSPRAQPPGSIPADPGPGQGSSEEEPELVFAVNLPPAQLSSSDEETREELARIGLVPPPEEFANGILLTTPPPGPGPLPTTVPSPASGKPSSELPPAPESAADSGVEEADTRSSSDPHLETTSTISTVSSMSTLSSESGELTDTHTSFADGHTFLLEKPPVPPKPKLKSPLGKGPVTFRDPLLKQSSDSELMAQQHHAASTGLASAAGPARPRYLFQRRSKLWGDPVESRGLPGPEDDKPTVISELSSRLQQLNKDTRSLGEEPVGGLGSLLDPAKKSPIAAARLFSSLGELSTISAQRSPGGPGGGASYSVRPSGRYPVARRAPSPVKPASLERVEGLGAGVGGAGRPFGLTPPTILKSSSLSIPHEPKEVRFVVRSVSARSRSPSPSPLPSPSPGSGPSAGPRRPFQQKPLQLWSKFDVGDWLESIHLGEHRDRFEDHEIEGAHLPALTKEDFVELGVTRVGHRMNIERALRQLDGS
UniProt Q8BYM5, residues 35-825: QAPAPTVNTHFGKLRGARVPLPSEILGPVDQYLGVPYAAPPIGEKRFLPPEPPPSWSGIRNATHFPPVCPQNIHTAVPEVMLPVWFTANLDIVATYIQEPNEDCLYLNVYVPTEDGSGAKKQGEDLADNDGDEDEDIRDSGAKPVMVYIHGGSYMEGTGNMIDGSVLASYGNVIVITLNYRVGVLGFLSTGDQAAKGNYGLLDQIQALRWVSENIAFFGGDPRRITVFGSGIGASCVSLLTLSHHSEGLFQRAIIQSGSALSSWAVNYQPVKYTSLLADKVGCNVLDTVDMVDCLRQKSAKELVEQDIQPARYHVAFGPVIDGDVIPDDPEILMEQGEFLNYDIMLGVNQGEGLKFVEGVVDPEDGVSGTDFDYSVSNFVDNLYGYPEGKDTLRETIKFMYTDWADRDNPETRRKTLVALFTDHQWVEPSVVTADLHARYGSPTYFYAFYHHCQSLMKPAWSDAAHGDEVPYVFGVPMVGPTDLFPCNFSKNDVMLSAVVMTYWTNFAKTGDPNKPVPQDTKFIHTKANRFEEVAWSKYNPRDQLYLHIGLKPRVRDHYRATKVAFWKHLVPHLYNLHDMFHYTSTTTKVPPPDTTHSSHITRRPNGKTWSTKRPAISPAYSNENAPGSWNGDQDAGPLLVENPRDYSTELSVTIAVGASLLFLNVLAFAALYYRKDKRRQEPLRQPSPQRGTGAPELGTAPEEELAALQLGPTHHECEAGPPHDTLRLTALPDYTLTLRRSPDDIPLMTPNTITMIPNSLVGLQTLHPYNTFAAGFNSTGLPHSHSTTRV
UniProt Q3UVX5, residues 19-1203: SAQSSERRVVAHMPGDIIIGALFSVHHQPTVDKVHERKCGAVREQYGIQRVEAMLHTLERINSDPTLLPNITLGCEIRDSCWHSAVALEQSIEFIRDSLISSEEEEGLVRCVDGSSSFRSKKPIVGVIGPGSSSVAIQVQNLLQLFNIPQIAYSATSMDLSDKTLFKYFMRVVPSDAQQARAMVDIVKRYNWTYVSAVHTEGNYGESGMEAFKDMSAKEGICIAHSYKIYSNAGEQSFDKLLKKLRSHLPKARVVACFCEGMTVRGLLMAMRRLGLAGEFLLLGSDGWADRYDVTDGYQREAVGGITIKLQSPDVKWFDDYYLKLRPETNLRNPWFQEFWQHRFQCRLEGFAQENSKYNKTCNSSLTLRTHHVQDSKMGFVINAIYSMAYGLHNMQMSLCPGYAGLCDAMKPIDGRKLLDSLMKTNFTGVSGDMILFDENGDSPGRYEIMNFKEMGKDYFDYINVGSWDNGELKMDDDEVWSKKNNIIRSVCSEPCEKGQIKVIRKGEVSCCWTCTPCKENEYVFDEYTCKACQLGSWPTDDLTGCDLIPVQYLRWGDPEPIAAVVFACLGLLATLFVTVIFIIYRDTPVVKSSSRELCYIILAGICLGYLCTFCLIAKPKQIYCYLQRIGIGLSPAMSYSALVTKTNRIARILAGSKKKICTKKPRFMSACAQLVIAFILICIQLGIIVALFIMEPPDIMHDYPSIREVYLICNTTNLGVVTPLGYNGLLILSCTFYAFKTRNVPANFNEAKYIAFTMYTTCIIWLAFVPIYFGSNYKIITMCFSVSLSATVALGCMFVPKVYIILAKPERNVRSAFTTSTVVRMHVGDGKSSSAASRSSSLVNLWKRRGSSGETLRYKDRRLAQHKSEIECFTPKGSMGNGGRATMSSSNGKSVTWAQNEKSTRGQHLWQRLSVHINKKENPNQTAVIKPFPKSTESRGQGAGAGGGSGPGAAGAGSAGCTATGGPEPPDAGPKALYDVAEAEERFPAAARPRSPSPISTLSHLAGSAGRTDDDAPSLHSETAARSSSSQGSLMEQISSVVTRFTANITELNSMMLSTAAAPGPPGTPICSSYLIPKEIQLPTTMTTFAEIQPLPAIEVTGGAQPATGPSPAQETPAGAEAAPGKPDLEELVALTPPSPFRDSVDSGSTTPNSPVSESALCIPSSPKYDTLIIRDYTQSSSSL

Assays:
[1] = target: T1, Homer1 (mouse (endogenous in mouse brain)) (UniProt Q9Z2Y3); test: co-IP; quantitative multiplex co-immunoprecipitation (QMI): IP antibodies on Luminex beads incubated overnight at 4 C with NP-40 lysate of P2 synaptosomes from mouse hippocampus, probed with biotinylated antibodies and streptavidin-PE, read on a flow cytometer; four ASD models (Shank3B-/-, Shank3 delta ex4-9+/-, Ube3a2xTG, E12.5 VPA) against littermate controls; only changes against control are told
T1 sequence: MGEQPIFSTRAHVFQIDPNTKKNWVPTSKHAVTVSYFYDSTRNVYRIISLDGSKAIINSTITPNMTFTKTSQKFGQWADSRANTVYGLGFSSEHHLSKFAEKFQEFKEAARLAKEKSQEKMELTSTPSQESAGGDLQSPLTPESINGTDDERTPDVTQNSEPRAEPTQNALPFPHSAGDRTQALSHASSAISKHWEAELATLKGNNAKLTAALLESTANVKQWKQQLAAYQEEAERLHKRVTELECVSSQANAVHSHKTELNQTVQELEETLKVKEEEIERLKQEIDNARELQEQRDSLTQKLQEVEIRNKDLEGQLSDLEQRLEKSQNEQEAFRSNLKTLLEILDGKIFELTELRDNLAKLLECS

[2] = target: SAP97 (mouse (endogenous in mouse brain)) (UniProt Q811D0); test: as above
[3] = target: T2, SynGAP1 (mouse (endogenous in mouse brain)) (UniProt F6SEU4); test: as above
T2 sequence: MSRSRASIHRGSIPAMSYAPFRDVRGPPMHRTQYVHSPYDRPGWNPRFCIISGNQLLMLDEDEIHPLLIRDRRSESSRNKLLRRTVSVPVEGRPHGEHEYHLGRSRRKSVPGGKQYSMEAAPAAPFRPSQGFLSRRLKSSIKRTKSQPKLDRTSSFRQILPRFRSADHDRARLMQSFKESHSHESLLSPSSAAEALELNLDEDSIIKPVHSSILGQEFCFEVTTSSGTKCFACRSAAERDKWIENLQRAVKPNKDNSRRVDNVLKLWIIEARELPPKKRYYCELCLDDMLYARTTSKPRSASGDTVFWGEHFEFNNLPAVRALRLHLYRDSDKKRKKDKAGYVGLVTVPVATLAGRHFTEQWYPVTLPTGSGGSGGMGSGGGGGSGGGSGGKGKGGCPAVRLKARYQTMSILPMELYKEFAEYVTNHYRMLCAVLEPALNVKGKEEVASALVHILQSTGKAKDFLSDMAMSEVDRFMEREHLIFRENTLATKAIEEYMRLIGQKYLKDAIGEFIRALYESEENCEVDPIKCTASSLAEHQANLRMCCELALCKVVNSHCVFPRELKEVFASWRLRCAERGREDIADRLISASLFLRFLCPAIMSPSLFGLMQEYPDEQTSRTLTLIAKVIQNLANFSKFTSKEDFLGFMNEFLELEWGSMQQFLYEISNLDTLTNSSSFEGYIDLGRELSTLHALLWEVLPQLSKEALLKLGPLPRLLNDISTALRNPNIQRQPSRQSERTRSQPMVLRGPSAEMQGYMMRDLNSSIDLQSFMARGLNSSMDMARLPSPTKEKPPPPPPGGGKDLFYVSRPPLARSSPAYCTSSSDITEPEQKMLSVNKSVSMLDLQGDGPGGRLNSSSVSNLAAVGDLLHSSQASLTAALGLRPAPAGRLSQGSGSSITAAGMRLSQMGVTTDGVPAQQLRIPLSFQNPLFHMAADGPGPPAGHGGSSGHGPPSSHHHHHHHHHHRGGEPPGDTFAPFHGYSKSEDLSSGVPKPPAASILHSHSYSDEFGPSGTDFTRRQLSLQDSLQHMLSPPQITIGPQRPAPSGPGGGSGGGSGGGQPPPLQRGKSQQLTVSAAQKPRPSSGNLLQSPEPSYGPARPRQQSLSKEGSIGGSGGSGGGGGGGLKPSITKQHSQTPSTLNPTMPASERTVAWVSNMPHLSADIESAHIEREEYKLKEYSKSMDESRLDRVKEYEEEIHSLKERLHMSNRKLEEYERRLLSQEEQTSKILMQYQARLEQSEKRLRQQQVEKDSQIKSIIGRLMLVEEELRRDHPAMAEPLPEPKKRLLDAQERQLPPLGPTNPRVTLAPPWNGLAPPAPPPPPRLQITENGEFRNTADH

[4] = target: Fyn Kinase (mouse (endogenous in mouse brain)) (UniProt P39688); test: co-IP; quantitative multiplex co-immunoprecipitation (QMI): IP antibodies on Luminex beads incubated overnight at 4 C with NP-40 lysate of P2 synaptosomes from mouse frontal cortex, probed with biotinylated antibodies and streptavidin-PE, read on a flow cytometer; seven ASD models (Shank3B-/-, Shank3 delta ex4-9+/-, Ube3a2xTG, E12.5 VPA, TSC2+/-, FMR1-/y, Cntnap2-/-) against littermate controls; only changes against control are told
[5] = target: NMDAR2A (mouse (endogenous in mouse brain)) (UniProt P35436); test: as above
[6] = target: NMDAR2B (mouse (endogenous in mouse brain)) (UniProt Q01097); test: as above
[7] = target: SHANK3 (mouse (endogenous in mouse brain)) (UniProt Q4ACU6); test: as above
[8] = target: Neuroligin 3 (mouse (endogenous in mouse brain)) (UniProt Q8BYM5); test: co-IP; quantitative multiplex co-immunoprecipitation (QMI): IP antibodies on Luminex beads incubated overnight at 4 C with NP-40 lysate of P2 synaptosomes from mouse hippocampus, probed with biotinylated antibodies and streptavidin-PE, read on a flow cytometer; four ASD models (Shank3B-/-, Shank3 delta ex4-9+/-, Ube3a2xTG, E12.5 VPA) against littermate controls; only changes against control are told
[9] = target: PI3K (p85alpha regulatory subunit) (mouse (endogenous in mouse brain)) (UniProt P26450); test: as above
[10] = target: T1, Homer1 (mouse (endogenous in mouse brain)); test: co-IP; quantitative multiplex co-immunoprecipitation (QMI): IP antibodies on Luminex beads incubated overnight at 4 C with NP-40 lysate of P2 synaptosomes from mouse frontal cortex, probed with biotinylated antibodies and streptavidin-PE, read on a flow cytometer; seven ASD models (Shank3B-/-, Shank3 delta ex4-9+/-, Ube3a2xTG, E12.5 VPA, TSC2+/-, FMR1-/y, Cntnap2-/-) against littermate controls; only changes against control are told
[11] = target: NMDAR1 (mouse (endogenous in mouse brain)) (UniProt P35438); test: co-IP; quantitative multiplex co-immunoprecipitation (QMI): IP antibodies on Luminex beads incubated overnight at 4 C with NP-40 lysate of P2 synaptosomes from mouse hippocampus, probed with biotinylated antibodies and streptavidin-PE, read on a flow cytometer; four ASD models (Shank3B-/-, Shank3 delta ex4-9+/-, Ube3a2xTG, E12.5 VPA) against littermate controls; only changes against control are told
[12] = target: SAP97 (mouse (endogenous in mouse brain)) (UniProt Q811D0); test: co-IP; quantitative multiplex co-immunoprecipitation (QMI): IP antibodies on Luminex beads incubated overnight at 4 C with NP-40 lysate of P2 synaptosomes from mouse frontal cortex, probed with biotinylated antibodies and streptavidin-PE, read on a flow cytometer; seven ASD models (Shank3B-/-, Shank3 delta ex4-9+/-, Ube3a2xTG, E12.5 VPA, TSC2+/-, FMR1-/y, Cntnap2-/-) against littermate controls; only changes against control are told
[13] = target: GluR2 (mouse (endogenous in mouse brain)) (UniProt P23819); test: as above
[14] = target: NMDAR1 (mouse (endogenous in mouse brain)) (UniProt P35438); test: as above

Measured: binding

NMDAR2B (from UniProt Q01097 27-1482) (receptor)
binds: [1] | [2] | [3]

Neuroligin 3 (from UniProt Q8BYM5 35-825)
binds: [4] | [5] | [6] | [7]

Fyn Kinase (from UniProt P39688 1-537) (enzyme)
binds: [8]

SAP97 (from UniProt Q811D0 1-905)
binds: [9] | [10]

mGluR5 (from UniProt Q3UVX5 19-1203) (receptor)
binds: [1] | [11] | [9] | [12]

NMDAR2A (from UniProt P35436 23-1464) (receptor)
binds: [8] | [9] | [3]

SHANK3 (from UniProt Q4ACU6 1-1730)
binds: [2] | [4] | [13] | [14]
